Measured values from patent US20250215052A1, “INHIBITORS OF PICK1 AND USES THEREOF” (University of Copenhagen, priority 2018, published 2025).
No constants are given. Whether binding was seen depends on the method and setting. Some binding calls cover weakened binding; strength is not graded here.

The chains behind the UniProt entries cited, without tags or fusion partners.
UniProt Q9EP80: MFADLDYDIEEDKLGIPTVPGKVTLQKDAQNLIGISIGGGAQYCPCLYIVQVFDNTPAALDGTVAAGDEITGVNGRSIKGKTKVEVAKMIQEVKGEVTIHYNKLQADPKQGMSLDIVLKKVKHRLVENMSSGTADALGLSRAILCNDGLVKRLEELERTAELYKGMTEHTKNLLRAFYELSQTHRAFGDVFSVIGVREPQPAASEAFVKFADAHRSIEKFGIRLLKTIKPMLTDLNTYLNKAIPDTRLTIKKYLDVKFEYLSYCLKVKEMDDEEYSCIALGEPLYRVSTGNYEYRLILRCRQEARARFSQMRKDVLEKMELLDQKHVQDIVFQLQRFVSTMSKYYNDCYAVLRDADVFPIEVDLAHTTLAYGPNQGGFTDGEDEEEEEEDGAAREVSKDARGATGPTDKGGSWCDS

Tests used:
[1] = target: Protein Interacting with C Kinase-1 (PICK1), purified recombinant (UniProt Q9EP80); experiment: fluorescence polarization, purified PICK1 in solution
[2] = target: Protein Interacting with C Kinase-1 (PICK1), purified recombinant (UniProt Q9EP80); experiment: fluorescence polarization competition, tracer 5FAM-DATC5, purified PICK1

In the case of EVRQFTLRHWLKV [DAT-C13], the binding [1] is reported as “binds”.

With VRQFTLRHWLKV [DAT-C12] the binding [1] was “binds”.

RQFTLRHWLKV [DAT-C11] was tested, and the binding [1] was “binds”.

In the case of QFTLRHWLKV [DAT-C10], the binding [1] is reported as “binds”.

FTLRHWLKV [DAT-C9] was tested, and the binding [1] was “binds”.

In the case of TLRHWLKV [DAT-C8], the binding [1] is reported as “binds”.

In the case of HWIKV [C5 peptide with X3 (P-2) substituted to I (HWIKV)], the binding [2] is reported as “binds”.

With HWLRV [C5 peptide with X4 substituted to R (HWLRV)] the binding [2] was “binds”.

LRHWLKV [DAT-C7] was tested, and the binding [1] was “binds”.

For HFLKV [C5 peptide with X2 substituted to F (HFLKV)], the binding [2] was “binds”.

With AWLKV [C5 peptide with X1 substituted to A (AWLKV)] the binding [2] was “binds”.

IWLKV [C5 peptide with X1 substituted to I (IWLKV)] was tested, and the binding [2] was “binds”.

In the case of RHWLKV [DAT-C6], the binding [1] is reported as “binds”.
